Residue numbers refer to the chain shown, from its start. Results are given in words; binding and its absence hold for the method and conditions named. Some entries that bind do so weakly or less than the wild type. Values belong to the binder of their own block, whether it stands above or below them.
Assays:
Human beta1 (human) = Human beta1 (human) (UniProt P05556); assay: specificity ELISA on coated integrins, periplasmic extract
[1] = biological target: T1, recombinant human alphavbeta6 (human, UniProt P06756 31-992; P18564 22-707, limits assumed); assay: as above
T1 construct: Bought, carrier free (R&D Systems 3817-AV/CF); also called aVb6

By UniProt entry, the sequences of proteins in these tests, tags left out. Where a name states a change or a piece, a line headed by the entry shows the natural chain unless it says otherwise. Residues count along the entry.
UniProt P05556: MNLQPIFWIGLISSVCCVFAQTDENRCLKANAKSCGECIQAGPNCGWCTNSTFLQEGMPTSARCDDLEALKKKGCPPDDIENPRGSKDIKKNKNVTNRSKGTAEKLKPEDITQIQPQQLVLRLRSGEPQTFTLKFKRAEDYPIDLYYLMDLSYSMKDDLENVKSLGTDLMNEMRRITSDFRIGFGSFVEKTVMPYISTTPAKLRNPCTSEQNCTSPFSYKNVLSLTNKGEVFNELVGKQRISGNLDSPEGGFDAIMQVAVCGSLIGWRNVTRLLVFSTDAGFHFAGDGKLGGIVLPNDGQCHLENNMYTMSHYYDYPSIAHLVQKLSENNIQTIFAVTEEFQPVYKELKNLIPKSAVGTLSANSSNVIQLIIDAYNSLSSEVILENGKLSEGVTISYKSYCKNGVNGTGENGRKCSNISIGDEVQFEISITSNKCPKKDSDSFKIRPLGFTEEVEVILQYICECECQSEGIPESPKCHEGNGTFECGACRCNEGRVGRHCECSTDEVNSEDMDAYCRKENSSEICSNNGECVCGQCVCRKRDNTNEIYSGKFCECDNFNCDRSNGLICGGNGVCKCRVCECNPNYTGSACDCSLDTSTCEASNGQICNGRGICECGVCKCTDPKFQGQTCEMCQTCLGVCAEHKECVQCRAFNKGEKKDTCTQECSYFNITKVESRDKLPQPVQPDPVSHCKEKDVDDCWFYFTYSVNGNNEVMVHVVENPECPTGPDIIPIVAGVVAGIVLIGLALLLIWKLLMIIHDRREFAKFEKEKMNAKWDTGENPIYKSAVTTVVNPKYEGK
UniProt P06756: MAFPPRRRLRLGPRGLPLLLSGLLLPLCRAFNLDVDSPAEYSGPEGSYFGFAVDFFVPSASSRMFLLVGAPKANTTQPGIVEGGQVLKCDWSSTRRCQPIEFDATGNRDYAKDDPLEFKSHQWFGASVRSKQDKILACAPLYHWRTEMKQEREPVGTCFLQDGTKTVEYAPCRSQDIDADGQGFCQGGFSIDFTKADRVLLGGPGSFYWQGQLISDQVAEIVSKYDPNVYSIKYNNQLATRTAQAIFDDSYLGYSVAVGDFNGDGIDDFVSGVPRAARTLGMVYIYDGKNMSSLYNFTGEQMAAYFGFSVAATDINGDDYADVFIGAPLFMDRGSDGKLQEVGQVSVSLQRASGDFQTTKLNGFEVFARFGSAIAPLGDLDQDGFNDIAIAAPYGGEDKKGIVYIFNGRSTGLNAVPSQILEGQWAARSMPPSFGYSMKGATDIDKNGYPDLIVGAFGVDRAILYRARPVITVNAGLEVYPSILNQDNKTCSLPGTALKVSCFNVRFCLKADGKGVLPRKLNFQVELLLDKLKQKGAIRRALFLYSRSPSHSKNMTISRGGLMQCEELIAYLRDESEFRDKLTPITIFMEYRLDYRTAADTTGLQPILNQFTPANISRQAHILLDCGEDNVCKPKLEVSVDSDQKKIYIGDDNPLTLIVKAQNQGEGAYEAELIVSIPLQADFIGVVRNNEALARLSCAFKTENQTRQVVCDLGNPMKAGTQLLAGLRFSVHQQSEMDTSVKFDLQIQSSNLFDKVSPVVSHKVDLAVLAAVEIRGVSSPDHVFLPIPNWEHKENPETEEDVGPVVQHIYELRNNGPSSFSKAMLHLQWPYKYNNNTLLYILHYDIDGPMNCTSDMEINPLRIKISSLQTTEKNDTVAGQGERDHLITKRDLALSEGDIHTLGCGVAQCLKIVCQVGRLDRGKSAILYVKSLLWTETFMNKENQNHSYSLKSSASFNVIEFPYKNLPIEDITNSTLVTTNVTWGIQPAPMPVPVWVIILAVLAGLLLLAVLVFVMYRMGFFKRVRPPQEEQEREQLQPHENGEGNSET
UniProt P08648, residues 42-995: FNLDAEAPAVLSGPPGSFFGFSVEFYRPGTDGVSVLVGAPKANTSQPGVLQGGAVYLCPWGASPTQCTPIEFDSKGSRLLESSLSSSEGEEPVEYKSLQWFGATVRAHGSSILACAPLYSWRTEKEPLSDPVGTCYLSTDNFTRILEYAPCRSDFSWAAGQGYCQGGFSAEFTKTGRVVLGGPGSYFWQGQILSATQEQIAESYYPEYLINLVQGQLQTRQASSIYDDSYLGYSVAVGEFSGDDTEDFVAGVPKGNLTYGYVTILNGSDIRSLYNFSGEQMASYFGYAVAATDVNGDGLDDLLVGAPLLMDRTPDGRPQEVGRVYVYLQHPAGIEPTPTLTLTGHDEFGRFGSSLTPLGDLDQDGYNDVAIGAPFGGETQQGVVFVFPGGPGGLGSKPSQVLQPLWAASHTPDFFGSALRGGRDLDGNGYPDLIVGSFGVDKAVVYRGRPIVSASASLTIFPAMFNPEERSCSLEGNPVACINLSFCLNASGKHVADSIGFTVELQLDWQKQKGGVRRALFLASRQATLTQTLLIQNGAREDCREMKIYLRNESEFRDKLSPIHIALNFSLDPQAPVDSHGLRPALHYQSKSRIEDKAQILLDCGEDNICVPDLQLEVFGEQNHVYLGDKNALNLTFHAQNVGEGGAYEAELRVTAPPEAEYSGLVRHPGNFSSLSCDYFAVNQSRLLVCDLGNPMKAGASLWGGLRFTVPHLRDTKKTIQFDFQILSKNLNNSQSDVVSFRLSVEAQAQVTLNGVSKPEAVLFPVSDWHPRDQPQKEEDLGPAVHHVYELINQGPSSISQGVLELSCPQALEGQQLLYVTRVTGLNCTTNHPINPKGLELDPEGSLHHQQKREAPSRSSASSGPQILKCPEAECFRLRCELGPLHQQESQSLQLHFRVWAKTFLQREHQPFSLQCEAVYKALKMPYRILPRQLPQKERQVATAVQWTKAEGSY

Human alpha3 (human) = biological target: T2, Human alpha3 (human) (UniProt P26006); assay: as above
T2 sequence (looked up): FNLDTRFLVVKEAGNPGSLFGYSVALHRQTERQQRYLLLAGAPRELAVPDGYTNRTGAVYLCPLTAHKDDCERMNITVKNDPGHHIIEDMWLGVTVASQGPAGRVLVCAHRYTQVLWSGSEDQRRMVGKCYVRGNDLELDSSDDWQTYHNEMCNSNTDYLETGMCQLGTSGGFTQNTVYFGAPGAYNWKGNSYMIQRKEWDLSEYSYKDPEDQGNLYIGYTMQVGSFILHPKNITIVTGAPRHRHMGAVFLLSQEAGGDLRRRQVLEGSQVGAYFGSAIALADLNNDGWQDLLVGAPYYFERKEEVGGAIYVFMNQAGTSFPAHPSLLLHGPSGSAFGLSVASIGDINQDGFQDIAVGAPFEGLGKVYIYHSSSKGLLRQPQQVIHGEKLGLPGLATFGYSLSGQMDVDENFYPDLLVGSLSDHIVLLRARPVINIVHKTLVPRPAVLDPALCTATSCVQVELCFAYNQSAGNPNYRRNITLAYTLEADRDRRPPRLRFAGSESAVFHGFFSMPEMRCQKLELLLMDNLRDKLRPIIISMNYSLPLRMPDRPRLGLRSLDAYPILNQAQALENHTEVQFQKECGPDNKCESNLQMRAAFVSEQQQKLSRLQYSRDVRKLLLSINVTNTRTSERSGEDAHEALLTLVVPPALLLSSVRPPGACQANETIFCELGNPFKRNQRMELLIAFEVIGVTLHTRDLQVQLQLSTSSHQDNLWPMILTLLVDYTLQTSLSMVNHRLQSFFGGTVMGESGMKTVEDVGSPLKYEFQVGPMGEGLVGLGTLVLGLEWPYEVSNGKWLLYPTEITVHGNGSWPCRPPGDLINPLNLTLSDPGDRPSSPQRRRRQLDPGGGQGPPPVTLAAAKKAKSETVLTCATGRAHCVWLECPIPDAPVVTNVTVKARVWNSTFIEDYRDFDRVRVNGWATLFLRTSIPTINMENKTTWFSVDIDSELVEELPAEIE

Human alpha5 (human) = Human alpha5 (human) (UniProt P08648); assay: as above
[2] = biological target: α3β1 (VLA-3) integrin of cells (HeLa cells; K562A3 transfectants) (human) (UniProt P26006+P05556); assay: immunofluorescence on fixed cryo-sections of K562 / K562-A3 cells, 10 ug/ml

B1: 141-F11 (VHH)
VHH: EVQLVESGGGLVQAGGSLRLSCAASGRTISRFTMGWFRQAPGKERDFVAAISWGGGRTNYEDSVKDRFTISRDNAQNTVYLQMNSLKPEDTAVYYCAABSRGPYNSNWHQSSVSYDYWGQGTQVTVSS
binding (Human beta1 (human)): binds

B2: 141-F5 (VHH)
VHH: EVQLVESGGGLVQAGGSLRLACQASRAIERIVGWYRQAPGKQRELVAAITVPGITNYTDSVKDRFTISRDSAKNTVYLQMNKLKPEDTAVYYCAAPTYGRGQGTQVTVSS
binding (Human beta1 (human)): binds

B4: 141-D4 (VHH)
VHH: EVQLVESGGGLVQAGGSLRLSCAASGRMFSPNVMGWFRQAPGDQREFVANIYSGGSTNYADTVKGRFTILSDNAKNTVYLQMTSLKPEDTGVYYCSVKRVGQSWFDSGYWGQGTQVTVSS
binding (Human alpha3 (human)): binds

B5: 141-E5 (VHH)
VHH: EVQLVESGGGLVQAGGSLRLSCAASGSISSINSINIMGWYRQAPGKQRDLVAYITKRGSTKYADSVKGRFTISRDNAKNMATLQMNSLKPEDTAVYYCAAGPDGLGGQDDYWGQGTQVTVSS
binding (Human beta1 (human)): binds

B6: 142-A7 (VHH)
VHH: EVQLVESGGGLVQAGGSLSLSCAASGASGIIYSINAMGWYRQAPGKQREVVAVVTNGGSTEYADFVKGRFTVSREYAKNAVYLQMNSLKPEDTAVYYCYARGIIARWGSAPGNYWGQGTQVTVSS
binding (Human beta1 (human)): binds

B9: 141-D10 (VHH)
VHH: EVQLVESGGGLVQAGGSPRLSCVASGRTFSRCAMGWFRQAPGKEREFVATISANGELIYYANFVEGRFTISRDNAKNTVYLQMNSLKPEDTAVYFCAARRTFTRSSNRNEYADWGQGTQVTVSS
binding (Human alpha3 (human)): binds

B10: 245-D1 (VHH)
VHH: EVQLVESGGALVQPGGSLRLSCAASGFAFSNTVMSWARQAPGKGLEWVSTISASGVRTRYADSVTGRFTISRDYAKRTLYLQMNSLSPEDTGVYYCVRRKSYTDYDPPRWDYDTWGQGTQVTVSS
binding (Human alpha3 (human)): binds

B11: 141-B4 (VHH)
VHH: EVQLVESGGGLVEAGGSLRLSCAASGSIFSINVMGWYRQAPGKQRELIGSITSRGTTRYTDSVKGRFTISRGNDKSTVYLQMNSLKPEDTAVYYCAABKGGVIGYSEGYWGQGTQVTVSS
binding (Human alpha3 (human)): binds

B13: 141-B6 (VHH)
VHH: EVQLVESGGGMVQTGGSLRLSCAASGSTLNINNGEWYRQAPGKQREFVAAIGSGGTTDYADSVKGRFTISKANAKNTLYLQMNSLKPEDTAVYYCYVRSWRNYWGQGTQVTVSS
binding (Human beta1 (human)): binds

B14: 245-F7 (VHH)
VHH: EVQLVDSGGRLVQPGDLLRLSCTTSGFASSGYVLGWFRQAPGKEREFVAAIIRSGGNTAYSDSVKGRFTISRDNAKNTVYLQMKSLKPEDTGIYYCARSSVLGRSPALYDLWGQGTQVTVSS
binding (Human alpha3 (human)): binds

B17: 245-D7 (VHH)
VHH: EVQLVESGGGLVQAGGSLRLSCTASGRTASTYAMGWLRQAPGKEREFVAAISYSGATTYYADSVKGRFTISRDNAKSTAYLQMNSLQPEDTAVYYCAASANRDLSLWVSTAYRSTGLWYWGQGTQVTVSS
binding (Human beta1 (human)): binds

B18: 242-A4 (VHH)
VHH: EVQLVESGGGLVQAGGSLRLSCAASGGTFSTYAMGWFRQAPGEERQFVATITWTGYTYYTDSVKGRFTISRDNAKKTVYLRMDKLKPEDTAVYYCAADRRGYIETMSVNYDYWGQGTQVTVSS
binding (Human alpha5 (human)): binds

B20: 141-A4 (VHH)
VHH: EVQLVESGGGLVQAGGSLTLSCAASGSVFSINAMGWYRQAPGKQRELVATITTRGTTNYVDAVKGRFTISKDNAKNTMYLQMNSLKPEDTAVYYCAABSPPYGMGSDLGYWGQGTQVTVSS
binding (Human alpha3 (human)): binds

B21: 245-G1 (VHH)
VHH: EVQLVESGGGLVQPGGSLRLSCAASGFAFSHYPMGWVRQAPGKGLEWVSGISASSIRTSYADSVKGRFTISRDHAKNTLYLQMNSLKVEDTAVYYCAQLRNYRYFGDMDYRGEGTLVTVSS
binding (Human alpha3 (human)): binds

B22: 245-B1 (VHH)
VHH: EVQLVESGGGLVQAGGSLKLSCAASGFTFDDYAIGWFRQAPGKEREGVSCISSPDGSTYLVDSVKGRFTVSSDNAKNTAYLQMNSLKPEDTAVYYCALRRGGSYYFCDPLTVYEYDYWGQGTQVTVSS
binding (Human alpha3 (human)): binds

B23: 141-F1 (VHH)
VHH: EVQLVESGGGLVKAGGSLRLSCAASGSIFSINTMAWYRQAPGKQREWITSITSRGTTRYABSVKGRFTISTSNDKSTVYLQMNSLKPEDTAVYYCAADKDGVIGYSVGYWGQGTQVTVSS
binding (Human alpha3 (human)): binds

B25: 241-E3 (VHH)
VHH: EVQLVESGGGLVQPGGSLRLSCAASGFTFSRYTMTWVRQAPGKEPEWVSSITSRGSSTNYADSAKGRFTISRDNAKNTLYLQMNSLKPGDTAMYYCAKSGTETWYDRTYWGQGTQVTVSS
binding (Human alpha5 (human)): binds

B28: 140-F2 (VHH)
VHH: EVQLVESGGGLVQAGGSLRLSCAASGYTFNHNTMAWYRQAPVKQRELAASISSGGSTYYADSVKGRFTISRDNGNNTMYLQMNNLKPEDTAVYYCNWKDWPPNYTNDYWGQGTQVTVSS
binding [1]: binds

Next, values leading:

binding [1]: binds
B3: 140-D10 (VHH)
VHH: EVQLVESGGGLVQAGGSLRLSCAASGRIYSSNTMAWFRQAPGKEREFGSAIMWRGDATYTDYADSMKDRFTISRDNAKNTVYLQMNSLKPEDTAIYYCAAGGRRWNTRKDSSQYDYWGQGTQVTVSS

binding (Human beta1 (human)): binds
B7: 142-G7 (VHH)
VHH: B6 VHH with S19R, I30T, N35S, A36S

binding (Human alpha3 (human)): binds
B8: 141-B11 (VHH)
VHH: EVQLVESGGGLVQAGGSLQLSCATSGESFSIKAMGWYRQAPGNQREMVATITGTGKTNYADSVKGRFTISRDIGTLYLQMNSLKPEDTAVYYCNLLSWPAGDYWGQGTQVTVSS

binding (Human alpha3 (human)): binds
B12: 141-F6 (VHH)
VHH: B11 VHH with T60A, K75M, E107V

binding (Human alpha3 (human)): binds
B15: 245-E1 (VHH)
VHH: EVQLVESGGGLVQAGGSLRLSCTVSITTYSFKRVAWHRQAPGNERELVAAIWNTDNTDYADSVKGRFTISRDNAKKTVYLQMNRLKPEDTAVYYCSANRGSYGTYWGQGTQVTVSS

binding (Human alpha3 (human)): binds
B16: 245-E7 (VHH)
VHH: EVQLVESGGGLVQAGGSLRLSCGASGSIGTFNIMGWYRQAPGKQREMVATMTSGGNTRYADSVKGRSTISRENAKKTITLQMNNLKPEDTGVYYCNLKTLTAWSTSTGDYWGQGTQVTVSS

binding [2]: binds
B19: VHH-5 bihead (GS15) (VHH)
chain: EVQLVESGGGLVQAGGSLRLSCAASGGTFRYQNMGWYRQAPGNEREWVASNWATGATAYADSVKGRFTISRDDAKNVVYLQMNNLKPEDTAVYYCNRLSRPWGWGQGTQVTVSSGGGGSGGGGSGGGGSEVQLVESGGGLVQAGGSLRLSCAASGGTFRYQNMGWYRQAPGNEREWVASNWATGATAYADSVKGRFTISRDDAKNVVYLQMNNLKPEDTAVYYCNRLSRPWSWGQGTQVTVSS

binding (Human alpha5 (human)): binds
B24: 241-E1 (VHH)
VHH: B25 VHH with A64V

binding (Human beta1 (human)): binds
B26: 141-H10 (VHH)
VHH: EVQLVESGGGLVQPGGSLRLSCAVSGFTSDYYAIGWFRQAPGKEREGVSCISSSDGSTYYABSVKGRFTISRDNAKNTVYLQMNSLKPEDTAVYYCATTCVVNPEGYDFWGQGTQVTVSS

binding [1]: binds
B27: 140-E5 (VHH)
VHH: B28 VHH with G9V, V42G, S56N, D61B, T105K

Reference: US20110294982A1 (Ablynx, published 2011)
